Reference: PubChem BioAssay AID248 (DTP/NCI, 2004)
The list is a part of this screen's results and no random one: it is rich in T/C values a quarter to a half above the control, in often repeated tests (any T/C) and in doses without a T/C. Further doses and runs are listed elsewhere. T/C gives the treated animals as a percentage of the vehicle group. Some entries give survivors of the animals treated and no T/C: the source files T/C as zero there, which appears to mark a toxic dose or a test without result, not a measured value. Some doses without a T/C left all or most animals alive at the check, yet need not have been tolerated: the source hardly ever lists a survival T/C far under the control, and the zero likely stands for such cases as well. Counts of survivors are from the toxicity check (mostly the fifth day) where no day follows; animals may have died later. Schedules are NCI's codes, read here as Q, the interval in days (D) or hours (H), X, the number of doses. Some structures stand for samples that the source files as different forms (salt, stereo form or complex); doses refer to the form tested. For survival time, the PubChem record calls one and a half times the control and up active, and a quarter to a half above the control has no call in these data; cut-offs in other NCI protocols can differ.

Test system: L1210 leukemia ip in BDF1 mice, survival T/C
Assay: NCI In Vivo Anticancer Drug Screen. Data for tumor model L1210 Leukemia (intraperitoneal) in B6D2F1 (BDF1) mice
Conditions: T/C endpoint: mean survival time, higher T/C = longer survival
[1] = dose: 200.0 mg/kg/injection, schedule: Q01DX009 (ip), vehicle: saline with Tween-80
[2] = dose: 400.0 mg/kg/injection, schedule: Q04DX002 (ip), vehicle: saline with Tween-80
[3] = dose: 200.0 mg/kg/injection, schedule: Q01DX009 (ip), vehicle: Klucel (hydroxypropylcellulose) (HPC)
[4] = dose: 400.0 mg/kg/injection, schedule: Q01DX009 (ip), vehicle: Klucel (hydroxypropylcellulose) (HPC)
[5] = dose: 400.0 mg/kg/injection, schedule: Q04DX003 (ip), vehicle: saline with Tween-80
[6] = dose: 400.0 mg/kg/injection, schedule: Q04DX003 (ip), vehicle: Klucel (hydroxypropylcellulose) (HPC)
[7] = dose: 400.0 mg/kg/injection, schedule: Q04DX002 (ip), vehicle: Klucel (hydroxypropylcellulose) (HPC)
[8] = dose: 400.0 mg/kg/injection, schedule: Q04DX003 (ip), vehicle: saline
[9] = dose: 75.0 mg/kg/injection, schedule: Q01DX009 (ip), vehicle: saline
[10] = dose: 100.0 mg/kg/injection, schedule: Q04DX003 (ip), vehicle: saline
[11] = dose: 200.0 mg/kg/injection, schedule: Q04DX003 (ip), vehicle: saline
[12] = dose: 19.0 mg/kg/injection, schedule: Q01DX001 (ip), vehicle: other
[13] = dose: 38.0 mg/kg/injection, schedule: Q01DX001 (ip), vehicle: other

Which survivor count [1] does the source give for `FC(F)(F)c1cccc(NC2=NCCS2)c1` here?
The survivor count was 2 of 3.

What about the survivor count [2] of the same compound?
Its survivor count is 2 of 3.

For `C#CC1(NC(=S)NC(=O)c2ccccc2)CCCCC1`, which survivor count [3] is on record?
The survivor count was 0 of 6.

What about the survivor count [4] of the same compound?
Its survivor count is 0 of 6.

For `CS(=O)(=O)c1ncc2cnccn12`, which T/C (dose: 200.0 mg/kg/injection, schedule: Q04DX003 (ip), vehicle: water) is on record?
Its T/C is 137 % of control.

What about the survivor count (dose: 400.0 mg/kg/injection, schedule: Q01DX009 (ip), vehicle: water) of the same compound?
The survivor count was 3 of 6.

`CCCC(=O)c1cc(O)c(O)cc1O` was tested. Which survivor count (dose: 100.0 mg/kg/injection, schedule: Q01DX009 (ip), vehicle: saline with Tween-80) did it give?
Its survivor count is 3 of 6.

And the survivor count [1]?
The survivor count was 0 of 6.

What about the survivor count [5] of the same compound?
The survivor count was 3 of 6.

Which survivor count (dose: 25.0 mg/kg/injection, schedule: Q04DX003 (ip), vehicle: acetone) does the source give for `Cc1nc2ccccc2nc1CI` here?
Its survivor count is 5 of 6.

What about the survivor count (dose: 28.0 mg/kg/injection, schedule: Q01DX009 (ip), vehicle: saline with Tween-80) of the same compound?
Its survivor count is 2 of 6.

And the survivor count (dose: 40.0 mg/kg/injection, schedule: Q01DX009 (ip), vehicle: saline with Tween-80)?
The survivor count was 3 of 6.

What about the survivor count (dose: 50.0 mg/kg/injection, schedule: Q04DX003 (ip), vehicle: acetone) of the same compound?
Its survivor count is 3 of 6.

What about the survivor count (dose: 100.0 mg/kg/injection, schedule: Q04DX003 (ip), vehicle: saline with Tween-80) of the same compound?
The survivor count was 2 of 6.

And the survivor count (dose: 200.0 mg/kg/injection, schedule: Q04DX003 (ip), vehicle: saline with Tween-80)?
The survivor count was 0 of 6.

What about the survivor count [5] of the same compound?
The survivor count was 0 of 6.

`O=C1/C(=C/c2cccnc2)CCc2ccccc21` was tested. Which survivor count [5] did it give?
The survivor count was 1 of 6.

With `COC(=O)c1ccccn1` as the compound, how does the survivor count [2] read?
The survivor count was 0 of 3.

With `CCOC(=O)c1[nH]c(C)c(C)c1-c1ccccc1` as the compound, how does the survivor count [6] read?
Its survivor count is 6 of 6.

What does the source list for `CC(C)(C)c1ccc(SCCN=C(N)CSS(=O)(=O)O)cc1`?
survivor count (dose: 12.5 mg/kg/injection, schedule: Q01DX009 (ip), vehicle: Klucel (hydroxypropylcellulose) (HPC)): 0 of 3; survivor count (dose: 25.0 mg/kg/injection, schedule: Q04DX002 (ip), vehicle: Klucel (hydroxypropylcellulose) (HPC)): 0 of 3; survivor count (dose: 50.0 mg/kg/injection, schedule: Q04DX002 (ip), vehicle: Klucel (hydroxypropylcellulose) (HPC)): 0 of 3; survivor count (dose: 100.0 mg/kg/injection, schedule: Q04DX002 (ip), vehicle: Klucel (hydroxypropylcellulose) (HPC)): 0 of 3; survivor count (dose: 200.0 mg/kg/injection, schedule: Q04DX002 (ip), vehicle: Klucel (hydroxypropylcellulose) (HPC)): 0 of 3; survivor count [7]: 0 of 3

With `CCCCSCC(N)CO` (centres undefined) as the compound, how does the survivor count [8] read?
The survivor count was 1 of 6.

`O=C(NCc1ccccc1)Sc1ccccc1` was tested. Which survivor count (dose: 175.0 mg/kg/injection, schedule: Q01DX001 (ip), vehicle: Klucel (hydroxypropylcellulose) (HPC)) did it give?
Its survivor count is 1 of 6.

What about the survivor count (dose: 350.0 mg/kg/injection, schedule: Q01DX001 (ip), vehicle: Klucel (hydroxypropylcellulose) (HPC)) of the same compound?
Its survivor count is 0 of 6.

`CSc1ccc(NC(=O)Nc2cc(C)c(C)cc2C)cc1` was tested. Which survivor count (dose: 100.0 mg/kg/injection, schedule: Q01DX009 (ip), vehicle: other) did it give?
Its survivor count is 6 of 6.

Which survivor count [7] does the source give for `O=C1c2cccc3cccc(c23)C(=O)N1CCCN1C(=O)c2cccc3cccc(c23)C1=O` here?
Its survivor count is 0 of 3.

Which survivor count [7] does the source give for `c1ccc(CN2C3CCCC2CC(c2ccccc2)C3)cc1` (centres undefined) here?
The survivor count was 0 of 3.

`O=C(CCN1CC1)NCCc1ccccc1` was tested. Which survivor count (dose: 80.0 mg/kg/injection, schedule: Q04DX003 (ip), vehicle: Klucel (hydroxypropylcellulose) (HPC)) did it give?
Its survivor count is 6 of 6.

What about the survivor count (dose: 200.0 mg/kg/injection, schedule: Q04DX003 (ip), vehicle: Klucel (hydroxypropylcellulose) (HPC)) of the same compound?
The survivor count was 2 of 6.

What about the survivor count [6] of the same compound?
Its survivor count is 0 of 6.

For `Cc1cc2nc3ccc(=[N+](C)C)cc-3sc2cc1N`, which survivor count [9] is on record?
Its survivor count is 0 of 6.

And the survivor count [10]?
Its survivor count is 4 of 6.

What about the survivor count (dose: 115.0 mg/kg/injection, schedule: Q01DX009 (ip), vehicle: saline) of the same compound?
The survivor count was 0 of 6.

What about the survivor count (dose: 170.0 mg/kg/injection, schedule: Q01DX009 (ip), vehicle: saline) of the same compound?
Its survivor count is 0 of 6.

What about the survivor count [11] of the same compound?
Its survivor count is 0 of 6.

Which results are given for `Nc1cc(Cl)cc2c1-c1c(Cl)cc(Cl)cc1C2=O`?
survivor count [4]: 3 of 6; survivor count [6]: 1 of 6

With `CCN1/C(=C/C(C)=C/c2sc3ccccc3[n+]2CC)Sc2ccccc21` as the compound, how does the survivor count (dose: 9.5 mg/kg/injection, schedule: Q01DX001 (ip), vehicle: other) read?
The survivor count was 0 of 6.

And the survivor count [12]?
Its survivor count is 0 of 6.

And the survivor count [13]?
Its survivor count is 0 of 6.

What about the survivor count (dose: 300.0 micrograms/kg/injection, schedule: Q01DX015 (ip), vehicle: saline) of the same compound?
Its survivor count is 3 of 6.

And the survivor count (dose: 450.0 micrograms/kg/injection, schedule: Q01DX015 (ip), vehicle: saline)?
The survivor count was 3 of 6.

What about the survivor count (dose: 675.0 micrograms/kg/injection, schedule: Q01DX015 (ip), vehicle: saline) of the same compound?
The survivor count was 2 of 6.

For `Nc1cccc(COc2ccccc2)c1`, which survivor count [8] is on record?
The survivor count was 2 of 6.

What does the source list for `Clc1ccc(P(c2ccc(Cl)cc2)c2ccc(Cl)cc2)cc1`?
survivor count [1]: 6 of 6; survivor count (dose: 400.0 mg/kg/injection, schedule: Q01DX009 (ip), vehicle: saline with Tween-80): 6 of 6

`CCCCCCCCCCCC(=O)Nc1ccccc1` was tested. Which survivor count (dose: 100.0 mg/kg/injection, schedule: Q01DX009 (ip), vehicle: saline) did it give?
The survivor count was 6 of 6.

And the survivor count (dose: 200.0 mg/kg/injection, schedule: Q01DX009 (ip), vehicle: saline)?
The survivor count was 4 of 6.

And the survivor count (dose: 400.0 mg/kg/injection, schedule: Q01DX009 (ip), vehicle: saline)?
The survivor count was 6 of 6.

What does the source list for `Brc1ccc(C[n+]2ccccc2)cc1`?
survivor count [9]: 0 of 6; survivor count (dose: 100.0 mg/kg/injection, schedule: Q01DX001 (ip), vehicle: saline): 0 of 6; survivor count (dose: 115.0 mg/kg/injection, schedule: Q04DX003 (ip), vehicle: saline): 1 of 6; survivor count (dose: 170.0 mg/kg/injection, schedule: Q04DX003 (ip), vehicle: saline): 0 of 6; survivor count (dose: 200.0 mg/kg/injection, schedule: Q01DX001 (ip), vehicle: saline): 1 of 6; survivor count (dose: 400.0 mg/kg/injection, schedule: Q01DX001 (ip), vehicle: saline): 0 of 6

Which survivor count [8] does the source give for `CCOC(=O)N(C1CCCCC1)P(=O)(OCC)OCC` here?
The survivor count was 2 of 6.

With `CCN1/C(=C/c2ccc3ccccc3[n+]2CC)C=Cc2ccccc21` as the compound, how does the survivor count (dose: 4.0 mg/kg/injection, schedule: Q01DX001 (ip), vehicle: other) read?
Its survivor count is 3 of 6.

And the survivor count [12]?
The survivor count was 1 of 6.

And the survivor count [13]?
Its survivor count is 0 of 6.

And the survivor count (dose: 75.0 mg/kg/injection, schedule: Q01DX001 (ip), vehicle: other)?
The survivor count was 0 of 6.

What about the survivor count (dose: 150.0 mg/kg/injection, schedule: Q01DX001 (ip), vehicle: other) of the same compound?
The survivor count was 0 of 6.

What about the survivor count (dose: 300.0 mg/kg/injection, schedule: Q01DX001 (ip), vehicle: other) of the same compound?
The survivor count was 0 of 6.

With `ClC(Cl)c1nc2ccccc2[nH]1` as the compound, how does the survivor count (dose: 50.0 mg/kg/injection, schedule: Q01DX001 (ip), vehicle: Klucel (hydroxypropylcellulose) (HPC)) read?
The survivor count was 3 of 3.

What about the survivor count (dose: 100.0 mg/kg/injection, schedule: Q01DX001 (ip), vehicle: Klucel (hydroxypropylcellulose) (HPC)) of the same compound?
The survivor count was 0 of 3.

And the survivor count [10]?
Its survivor count is 4 of 6.

What about the survivor count [11] of the same compound?
The survivor count was 1 of 6.

For `C[OH+]c1ccccc1C(=O)O.C[OH+]c1ccccc1C(=O)O.[Ni]`, which survivor count [2] is on record?
Its survivor count is 2 of 3.

For `NCC(=O)c1cccc2ccc[n+]([O-])c12`, which survivor count [3] is on record?
Its survivor count is 3 of 6.

What about the survivor count [6] of the same compound?
The survivor count was 0 of 6.

For `CNc1nc(NC)nc(NC)n1`, which survivor count [4] is on record?
The survivor count was 0 of 10.
